{"source": "PubChem BioAssay AID652272 (Drosophila RNAi Screening Center, 2013)", "assay": "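Finding fly genes that regulate Hedgehog signal transduction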 (primary screen)", "system": "Drosophila clone 8 (Cl8) cells", "knock-down reagent": "long dsRNA against Drosophila genes", "measurement": "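Firefly light from a Hedgehog-responsive ptc promoter reporter and Renilla reference light, both read on a plate reader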", "direction": "firefly Hh reporter signal: higher = more ptc reporter light; Renilla reference signal: higher = more Renilla control light", "call rule": "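Hit when the z-score averaged over two replicates is under -2 or over +3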", "meaning of the calls": "active = hit: reporter lowered or raised; inactive = not a hit", "note": "The deposit covers about 21,000 reagents; shown is a random part of those with a known target gene and a result. Of all reagents, 503 (2.4%) got an active call. 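Raw plate light values, not normalised; calls rest on replicate z-scores that were not deposited; hits include reporter decreases as well as increases.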 No sequences are given here. Not stated in the record: the amount of reagent, the time to read-out."}
{"target": "polyph", "dsRNA": "DRSC06254", "firefly Hh reporter signal, replicate 1": 67065, "firefly Hh reporter signal, replicate 2": 38610, "Renilla reference signal, replicate 1": 1543, "Renilla reference signal, replicate 2": 2704, "outcome": "inactive"}
{"target": "CG42703", "dsRNA": "DRSC03973", "firefly Hh reporter signal, replicate 1": 1.21e5, "firefly Hh reporter signal, replicate 2": 3.35e5, "Renilla reference signal, replicate 1": 2896, "Renilla reference signal, replicate 2": 15925, "outcome": "inactive"}
{"target": "Prp6", "dsRNA": "DRSC10724", "firefly Hh reporter signal, replicate 1": 1.40e5, "firefly Hh reporter signal, replicate 2": 8.32e5, "firefly Hh reporter signal, replicate 3": 1.27e5, "Renilla reference signal, replicate 1": 4992, "Renilla reference signal, replicate 2": 46851, "outcome": "inactive"}
{"target": "fit", "dsRNA": "DRSC15280", "firefly Hh reporter signal, replicate 1": 9.42e5, "firefly Hh reporter signal, replicate 2": 2.29e5, "Renilla reference signal, replicate 1": 37108, "Renilla reference signal, replicate 2": 4898, "outcome": "inactive"}
{"target": "CDK2AP1", "dsRNA": "DRSC19800", "firefly Hh reporter signal, replicate 1": 1.37e5, "firefly Hh reporter signal, replicate 2": 1.06e5, "Renilla reference signal, replicate 1": 3280, "Renilla reference signal, replicate 2": 2700, "outcome": "inactive"}
{"target": "CG14011", "dsRNA": "DRSC02343", "firefly Hh reporter signal, replicate 1": 1.04e5, "firefly Hh reporter signal, replicate 2": 54484, "Renilla reference signal, replicate 1": 1971, "Renilla reference signal, replicate 2": 5110, "outcome": "inactive"}
{"target": "nmdyn-D7", "dsRNA": "DRSC17016", "firefly Hh reporter signal, replicate 1": 64882, "firefly Hh reporter signal, replicate 2": 96644, "Renilla reference signal, replicate 1": 1512, "Renilla reference signal, replicate 2": 2752, "outcome": "inactive"}
{"target": "CG3253", "dsRNA": "DRSC04350", "firefly Hh reporter signal, replicate 1": 1.63e5, "firefly Hh reporter signal, replicate 2": 1.35e5, "Renilla reference signal, replicate 1": 6676, "Renilla reference signal, replicate 2": 5411, "outcome": "inactive"}
{"target": "rtp", "dsRNA": "DRSC12132", "firefly Hh reporter signal, replicate 1": 1.30e5, "firefly Hh reporter signal, replicate 2": 1.33e5, "Renilla reference signal, replicate 1": 5333, "Renilla reference signal, replicate 2": 5494, "outcome": "inactive"}
{"target": "wts", "dsRNA": "DRSC17096", "firefly Hh reporter signal, replicate 1": 41010, "firefly Hh reporter signal, replicate 2": 29325, "Renilla reference signal, replicate 1": 1417, "Renilla reference signal, replicate 2": 2067, "outcome": "inactive"}
{"target": "CG42336", "dsRNA": "DRSC05273", "firefly Hh reporter signal, replicate 1": 1.25e5, "firefly Hh reporter signal, replicate 2": 2.81e5, "Renilla reference signal, replicate 1": 3539, "Renilla reference signal, replicate 2": 10775, "outcome": "inactive"}
{"target": "CG42336", "dsRNA": "DRSC06332", "firefly Hh reporter signal, replicate 1": 82968, "firefly Hh reporter signal, replicate 2": 35894, "Renilla reference signal, replicate 1": 2070, "Renilla reference signal, replicate 2": 2501, "outcome": "inactive"}
{"target": "CG42336", "dsRNA": "DRSC06333", "firefly Hh reporter signal, replicate 1": 1.64e5, "firefly Hh reporter signal, replicate 2": 5.20e5, "firefly Hh reporter signal, replicate 3": 90858, "Renilla reference signal, replicate 1": 4288, "Renilla reference signal, replicate 2": 1524, "outcome": "inactive"}
